Consider 64 compounds from PubChem BioAssay AID493014 (National Center for Advancing Translational Sciences (NCATS), 2011).

Each structure is given as a SMILES string. Some of the results follow. These are further read-outs of the screen, such as a control signal, another cell line or another target. No call is given for them. Most of these compounds were active or inconclusive in the main read-out, so they are no random draw. Words in brackets tell the shape of the fitted curve; partial curves, single points and poor fits give uncertain potencies.

This experiment in a line: qHTS Assay to Find Inhibitors of Chronic Active B-Cell Receptor Signaling. The settings on record: ABC-DLBCL IkBa-CBG/CBR reporter, luminescence ratio (green luciferase fused to IkBa over red control in TMD8 lymphoma cells), 4 h. Summed up: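 TMD8 ABC-DLBCL cells carrying doxycycline-inducible green luciferase fused to IkappaBalpha plus unfused red luciferase were exposed to compounds (up to 46 uM) for 4 hrs at 37C. Activity came from the overlap-corrected green/red luminescence ratio.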
For orientation: In qHTS, concentration-response curves come from the screen itself.

[1] abbreviates: measured here: CBR red luminescence, cell number.
The mark [2] stands for this setting: measured here: IkBa-CBG green luminescence.

As a reminder, the AC50 is the concentration giving half of the maximal activity seen. For `CSc1ccccc1NC(=O)COc1ccccc1C`, the AC50 under setting [1] is 35.5 µM [falling, single point].

`O=C1CCCCCN1Sc1ccccc1`: the concentration at half-maximal activity (AC50) is, setting by setting: under setting [1], 35.5 µM [rising, single point]; under setting [2], 25.1 µM [falling, single point].

Regarding `COc1cccc(C(=O)Nc2cccc(OCC(=O)O)c2)c1`, under setting [1], the AC50 was 16.4 µM [falling, single point].

In the case of `CCN1C(=O)NC2=C(C(=O)c3ccccc32)C1c1ccccc1F` (configuration not stated), the AC50 under setting [1] is 0.164 µM [falling, full curve, poor fit].

In the case of `Cc1cc(C)cc(N(CC(=O)NC2CCCC2)C(=O)CCC(=O)Nc2cc(C)ccn2)c1`, under setting [1], the half-maximal activity concentration (AC50) is 4.47 µM [falling, single point].

As for `O=C(NC(=S)Nn1cnnc1)c1ccccc1Br`, the concentration at half-maximal activity (AC50) under setting [1] was 0.708 µM [falling, full curve, poor fit].

Consider `COc1cc(NC(=O)CC(C)S(=O)(=O)c2cc3c(cc2C)NC(=O)CO3)cc(OC)c1OC` (configuration not stated), for which the concentration at half-maximal activity (AC50) under setting [1] was 11.2 µM [rising, partial curve, poor fit].

In the case of `O=C(N/N=C/c1cccs1)C(=O)Nc1cccc(Cl)c1`, the AC50 under setting [1] is 11.2 µM [falling, partial curve].

With `O=C(Oc1ccc(F)cc1)c1cccnc1`, the AC50 under setting [1] is 15.8 µM [rising, single point].

As for `COc1ccc(Cl)c(OC)c1C(=O)NC(=O)Nc1nc(C)nc(C)n1`, under setting [1], the AC50 is 35.5 µM [falling, partial curve, poor fit].

`CCn1cc(C(=O)OCC(=O)c2cc(C)n(-c3ccccc3F)c2C)c(=O)c2ccc(C)nc21`: under setting [1], the AC50 is 4.11 µM [rising, full curve, poor fit].

Regarding `O=c1c(Cl)c(NCCCO)cnn1-c1nc2ccccc2[nH]1`, the AC50 under setting [1] was 7.08 µM [falling, full curve].

Turning to `Cc1cc(C(=O)NNC(=O)c2ccccc2[N+](=O)[O-])c(C)o1`, the AC50 under setting [1] is 5.17 µM [falling, partial curve].

Consider `Cc1ccccc1NC(=O)CN1CCC(C(=O)c2ccc3c(c2)OCCO3)CC1`, for which, under setting [1], the AC50 was 35.5 µM [falling, single point].

`Cn1c(SCC(=O)O)nc2ccccc2c1=O`: under setting [1], the AC50 was 15.8 µM [falling, partial curve, poor fit].

Consider `COc1ccc(N(C(=O)Nc2ccc(Cl)cc2)C2=NCCC2)cc1`, for which, under setting [1], the AC50 is 8.2 µM [rising, partial curve, poor fit].

For `Cc1ccc(NC(=O)c2cc(S(=O)(=O)N3CCCCC3)cs2)cc1`, under setting [1], the concentration at half-maximal activity (AC50) was 2.59 µM [falling, full curve].

Regarding `O=C(NNC(=S)Nc1ccccc1)c1cc(Br)ccc1Cl`, the AC50 under setting [1] was 0.316 µM [rising, partial curve, poor fit].

On to `CN(C)/C=C/c1c([N+](=O)[O-])c2ccc(O)cc2n1-c1ccccc1`, for which the AC50 under setting [1] was 17.8 µM [falling, partial curve, poor fit].

With `COC(=O)c1sc(N2C(=O)C(=O)/C(=C(/O)c3ccccc3)C2c2ccco2)nc1C` (configuration not stated), the AC50 under setting [1] was 0.731 µM [rising, full curve, poor fit].

Take `CC(C)(C)c1csc(N/N=C/c2cccnc2)n1`: the AC50 under setting [1] is 22.4 µM [falling, single point].

For `COC(=O)c1cn(C(=O)/C=C/c2ccc(OC)c(OC)c2)c2ccccc12`, the half-maximal activity concentration (AC50) under setting [1] is 31.6 µM [falling, single point].

As for `CCCn1c(=O)c2c(c3ccccc31)OC(C)C(=O)N2` (configuration not stated), under setting [1], the AC50 was 6.51 µM [rising, single point].

On to `CC1CN(CC(O)COc2ccccc2C(C)(C)C)CC(C)O1` (configuration not stated), for which, under setting [1], the AC50 is 29.1 µM [falling, single point].

As for `Cc1c(C(=O)N/N=C/c2ccncc2)no[n+]1[O-]`, the AC50 under setting [1] was 35.5 µM [rising, single point].

As to `O=[N+]([O-])c1ccc(COn2nnc3ccccc32)cc1`, the AC50 under setting [1] was 1.78 µM [rising, partial curve, poor fit].

On to `C/C(=N/NC(=O)c1cc2ccccc2cc1O)C1C(=O)c2ccccc2C1=O`, for which the half-maximal activity concentration (AC50) under setting [1] is 0.103 µM [falling, full curve].

For `COc1ccc(/C=N/Nc2cc(OC)ncn2)cc1`, the AC50 under setting [1] is 3.26 µM [rising, single point].

Turning to `COc1ccc(C(=O)Nn2c(SCC(=O)NCc3ccco3)nc3ccccc3c2=O)cc1`, the AC50 under setting [1] is 3.98 µM [falling, partial curve].

Regarding `COCCN(C(=O)CN1CCc2ccccc2C1)c1c(N)n(Cc2ccccc2)c(=O)[nH]c1=O`, the AC50 under setting [1] was 35.5 µM [falling, single point].

With `COc1ccccc1NS(=O)(=O)NC(=O)c1c(C)[nH]c2ccccc12`, under setting [1], the AC50 was 20 µM [falling, partial curve, poor fit].

On to `O=C(c1ccccc1)c1c(O)cc(-c2ccccc2)oc1=O`, for which the AC50 under setting [1] was 11.6 µM [falling, partial curve].

As for `O=C(Nc1ccc(S(=O)(=O)N2CCCC2)cc1)c1ccc2c(=O)n3c(nc2c1)CCCCC3`, the AC50 under setting [1] is 29.1 µM [falling, single point].

Consider `COC(=O)c1cc(CNC(=O)c2ccc(N3CCCC3)c([N+](=O)[O-])c2)ccc1OC`, for which, under setting [1], the AC50 was 7.08 µM [rising, partial curve, poor fit].

With `CCN1C(=O)C(CC(=O)Nc2ccccc2)S/C1=N\c1ccccn1` (configuration not stated), the concentration at half-maximal activity (AC50) under setting [1] was 1.26 µM [rising, full curve].

With `COc1ccccc1-n1cnnc1SCC(=O)Nc1ncc(Cl)cc1Cl`, under setting [1], the AC50 was 12.6 µM [falling, partial curve].

On to `Cc1ccc(NC(=O)c2ccc(S(=O)(=O)N3CCC(C)CC3)cc2)nc1`, for which the AC50 under setting [1] is 20.6 µM [falling, single point].

Turning to `Cc1ccn2c(c1)nc(=O)c1cc(S(=O)(=O)N3CCCCC3)ccc12`, under setting [1], the AC50 was 3.98 µM [rising, full curve, poor fit].

As to `COC(=O)C1C(c2ccc(OC)cc2)Nc2nnc(C(F)(F)F)n2C1(C)O` (configuration not stated), the AC50 under setting [1] is 12.6 µM [falling, single point].

As to `C=C(C)CSc1nc2c(c(=O)[nH]c(=O)n2C)n1CCC(C)C`, the AC50 under setting [1] is 29.1 µM [rising, single point].

Regarding `COc1ccc2nc(NC(=O)Cn3cnc4ccccc4c3=O)sc2c1`, the AC50 under setting [1] was 2.51 µM [falling, partial curve, poor fit].

For the compound `CCc1ccc(NC(=O)Cc2c(C(=O)O)n(C)c3ccccc23)cc1`, the AC50 under setting [1] was 0.708 µM [rising, full curve].

On to `Cc1cccc(C)c1NC1=NC(C)(C)N=C(N)N1`, for which the concentration at half-maximal activity (AC50) under setting [1] was 22.4 µM [rising, partial curve, poor fit].

With `Cc1c(CCC(=O)N[C@@H](C)C(=O)O)c(=O)oc2cc3oc4c(c3cc12)CCCC4`, the AC50 was 3.55 µM [rising, single point] under setting [1] and 8.91 µM [falling, partial curve] under setting [2].

Take `CCOC(=O)c1c(NC(=O)Nc2ccc(F)cc2)sc2c1CCN(C)C2`: the AC50 under setting [1] was 5.01 µM [rising, single point].

For `COC(=O)c1ccccc1NC(=S)NC(NC(=O)c1ccco1)C(Cl)(Cl)Cl` (configuration not stated), the AC50 under setting [1] is 7.94 µM [falling, partial curve].

Turning to `CC1=NN(C(=O)c2csc(C)c2C)C(O)(C(F)(F)F)C1` (configuration not stated), the half-maximal activity concentration (AC50) under setting [1] was 23.1 µM [falling, partial curve, poor fit].

On to `O=C(O)c1cc([N+](=O)[O-])ccc1C(=O)Nc1cccc([N+](=O)[O-])c1`, for which the AC50 under setting [1] is 6.31 µM [rising, full curve, poor fit].

As for `O=C(COCc1ccccc1)N[C@@H]1c2ccccc2CC[C@H]1OCc1ccccc1`, under setting [2], the concentration at half-maximal activity (AC50) is 16.4 µM [falling, single point].

With `COc1cccc(N=Nc2c(N)[nH]n3c(=O)cc(-c4ccccc4)nc23)c1`, under setting [1], the concentration at half-maximal activity (AC50) is 0.355 µM [falling, full curve, poor fit].

As for `O=c1c(-c2ccccc2)nc(-c2ccccc2)cn1O`, the AC50 under setting [1] is 3.55 µM [rising, single point].

Regarding `O=C(Nc1nccs1)c1cccc(NC(=O)C(F)(F)F)c1`, the AC50 under setting [1] is 11.2 µM [falling, partial curve, poor fit].

On to `O=C(Nc1ccccc1F)c1ccc(O)c2ncccc12`, for which the AC50 under setting [1] was 25.9 µM [falling, single point].

For `Cn1cccc1Cc1nnc(SCC(=O)Nc2cccc(Cl)c2)n1-c1ccc(F)cc1`, the AC50 runs as follows: under setting [1], 29.1 µM [falling, single point]; under setting [2], 16.4 µM [rising, partial curve, poor fit].

For `O=C(CSc1n[nH]c(=O)n1C1CC1)Nc1ccc(F)c([N+](=O)[O-])c1`, the AC50 under setting [1] is 25.9 µM [falling, partial curve, poor fit].

Take `Cc1cccc(NC(=O)c2cccc(N3C(=O)C4C5C=CC(C6CC56)C4C3=O)c2)c1` (configuration not stated): under setting [1], the concentration at half-maximal activity (AC50) was 15.8 µM [falling, single point].

On to `CC(C)(C)N=C1NN=C(c2ccc(Cl)cc2)CS1`, for which the AC50 under setting [1] is 12.6 µM [falling, partial curve].

Regarding `O=C(CCl)NNC(=O)c1c(O)c2ccccc2[nH]c1=O`, the AC50 under setting [1] is 35.5 µM [falling, single point].

Take `CC(=O)C1=C(C)NC(SCC(=O)Nc2nc3ccccc3s2)=C(C#N)C1c1ccc(Cl)cc1` (configuration not stated): the AC50 under setting [1] is 1.16 µM [falling, full curve, poor fit].

For `COCc1c(C(=O)N/N=C(/C)c2ccc(OCc3ccccc3)cc2)nnn1-c1nonc1N`, the AC50 under setting [1] is 35.5 µM [rising, partial curve, poor fit].

Take `O=C(Oc1ccc(-c2nnco2)cc1)N1CCCCC1`: the AC50 under setting [1] was 29.1 µM [rising, single point].

For `NC(N)=Nc1cc2ccccc2c2ccccc12`, the AC50 under setting [1] was 11.2 µM [falling, partial curve, poor fit].

As to `CCOC(=O)Cc1csc(SCC(=O)Nc2cc(C)ccc2OC)n1`, under setting [1], the AC50 was 12.6 µM [falling, partial curve, poor fit].

`CCOc1ccccc1NC(=O)Cn1nc(-c2ccco2)ccc1=O`: the AC50 under setting [1] was 0.112 µM [falling, full curve, poor fit].
